{"sequences": {"note": "The chains behind the UniProt entries cited, without tags or fusion partners. Where a name states a change or a piece, a line headed by the entry shows the natural chain unless it says otherwise.", "UniProt P51450": "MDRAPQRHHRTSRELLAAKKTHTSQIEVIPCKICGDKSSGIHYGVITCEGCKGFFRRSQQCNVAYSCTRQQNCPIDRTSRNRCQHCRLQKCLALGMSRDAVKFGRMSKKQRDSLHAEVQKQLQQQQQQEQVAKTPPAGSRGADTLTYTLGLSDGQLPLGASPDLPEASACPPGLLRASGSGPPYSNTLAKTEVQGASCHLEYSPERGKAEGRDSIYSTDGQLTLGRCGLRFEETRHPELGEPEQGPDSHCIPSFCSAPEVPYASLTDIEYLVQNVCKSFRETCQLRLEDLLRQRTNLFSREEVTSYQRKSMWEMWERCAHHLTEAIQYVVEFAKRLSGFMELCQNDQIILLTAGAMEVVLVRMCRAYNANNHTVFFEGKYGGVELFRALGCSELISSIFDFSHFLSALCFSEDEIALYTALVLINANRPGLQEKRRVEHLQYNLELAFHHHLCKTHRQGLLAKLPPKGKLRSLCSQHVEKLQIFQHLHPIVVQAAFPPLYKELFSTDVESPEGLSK"}, "source": "PubChem BioAssay AID2551", "about": "(National Center for Advancing Translational Sciences (NCATS), 2010)", "note": "In all, about 310,000 compounds went through this assay and about 17,000 (5.5%) were called active. Inconclusive means that the source gave no clear call. Such entries were picked first, then a sample of the others. The call rests on the fitted dose curve; in most records, active means well fitted inhibition curve with a large enough effect; inconclusive means small, poorly fitted or top-dose-only effect, or effect the other way; inactive means no such curve, though single readings can be large or run the other way. Potencies of inconclusive entries are doubtful fits and often do not repeat. On the % scale 0 is the no-effect control and ±100 the full control effect; potency means the concentration at half of the fitted maximal effect.", "data": [{"biological_target": "Nuclear receptor ROR-gamma (Mus musculus) (UniProt P51450)", "assay": "qHTS for inhibitors of ROR gamma transcriptional activity; further: nearly all actives have a fitted effect of over 60% in size", "settings": "Drosophila S2 Gal4-RORgamma UAS-luciferase reporter, 20 h; activity change, negative = inhibition: at 53.6 µM (top of the series)", "outline": "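Compounds are pin-transferred onto Drosophila Schneider cells expressing a copper-inducible Gal4–ROR gamma transactivation domain fusion. After 1 hr, copper sulfate is added to 700 uM final; luciferase is read 20 hr later.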", "values": [{"smiles": "Cc1cc(C)c(C)c(S(=O)(=O)Nc2ccc(C(N)=O)cc2)c1C", "Potency": "inconclusive: 12.6 µM [activator, single point]"}, {"smiles": "O=C(Cn1cc(C(=O)c2cccs2)c2ccccc21)NC1CCCCC1", "Potency": "inconclusive: 10 µM [activator, partial curve]"}, {"smiles": "Cc1nn(-c2ccc3nnc(Br)n3n2)c(C)c1Br", "Potency": "inconclusive: 0.794 µM [inhibitor, single point]"}, {"smiles": "CCOC(=O)c1sc(NC(=O)c2ccc(S(=O)(=O)N(C)C)cc2)cc1C", "activity change, negative = inhibition": "inactive: -19.3%"}, {"smiles": "CCCCc1ccc(NC(=O)C2CCCO2)cc1", "note": "(stereo not drawn)", "Potency": "inconclusive: 35.5 µM [activator, partial curve]"}, {"smiles": "Cc1ccccc1C(=O)NN1CC(C(=O)OCc2ccc(Cl)c(Cl)c2)CC1=O", "note": "(stereo not drawn)", "activity change, negative = inhibition": "inactive: 14.5%"}, {"smiles": "C=CCOc1c(Cl)cc(CNc2ccc3[nH]c(=O)[nH]c3c2)cc1OC", "activity change, negative = inhibition": "inactive: 28.4%"}, {"smiles": "COc1cccc(CCNC(=O)CC2C(=O)NCCN2Cc2ccc(Cl)c(F)c2)c1", "note": "(stereo not drawn)", "Potency": "inconclusive: 14.1 µM [activator, partial curve]"}, {"smiles": "COc1cc2c(cc1NC(=O)COC(=O)[C@@H](NS(=O)(=O)c1ccccc1)C(C)C)oc1ccccc12", "Potency": "inconclusive: 12.6 µM [inhibitor, single point]"}, {"smiles": "N/C(=N\\O)c1ccc(N2CCN(c3ncccc3C(F)(F)F)CC2)nc1", "activity change, negative = inhibition": "inactive: 1.81%"}, {"smiles": "CC(C)Oc1ccc(C(=O)N2CCCc3ccccc32)cc1", "Potency": "inconclusive: 35.5 µM [activator, single point]"}, {"smiles": "CCOC(=O)/C(=C/c1c(C)n(C)c2ccc([N+](=O)[O-])cc12)C(C)=O", "Potency": "active: 12.6 µM"}, {"smiles": "CCOC(=O)C[n+]1c(C)ccc2c1CCC2", "Potency": "inconclusive: 3.16 µM [inhibitor, single point]"}, {"smiles": "Cc1ccc(C)c(NC(=O)CCC(=O)NNC(=O)c2cccs2)c1", "activity change, negative = inhibition": "inactive: 10.7%"}, {"smiles": "O=C(/C=C\\c1ccc2c(c1)OCO2)NC1(C(=O)Nc2ccc3c(c2)OCO3)CCCCC1", "activity change, negative = inhibition": "inactive: 3.35%"}, {"smiles": "O=C(c1ccc(F)cc1)C1CCN(C(=O)c2ccccc2F)CC1", "Potency": "inconclusive: 28.2 µM [inhibitor, single point]"}, {"smiles": "COc1cccc(CNC(=O)c2cc(COc3c(F)cccc3F)on2)c1", "Potency": "inconclusive: 22.4 µM [activator, single point]"}, {"smiles": "O=C(NCc1ccco1)c1sc2ccccc2c1Cl", "Potency": "inconclusive: 3.16 µM [activator, single point]"}, {"smiles": "O=C(N/N=C/c1ccc(N2CCOCC2)cc1)c1ccc(O)cc1", "Potency": "active: 4.47 µM"}, {"smiles": "CCC(Sc1nc(N)c(NC(=O)c2ccc(Br)o2)c(=O)[nH]1)C(=O)O", "note": "(stereo not drawn)", "activity change, negative = inhibition": "inactive: -17.3%"}, {"smiles": "CN(C)c1ccc(C(CNC(=O)c2ccccc2Br)c2c[nH]c3ccccc23)cc1", "note": "(stereo not drawn)", "Potency": "inconclusive: 6.31 µM [activator, partial curve]"}, {"smiles": "CCOC(=O)c1ccc(NC(=O)CN(C)S(=O)(=O)c2ccc(Br)s2)cc1", "Potency": "inconclusive: 14.1 µM [activator, partial curve]"}, {"smiles": "CCC(C)(C(=O)NC1CCCCC1)N(Cc1cccs1)C(=O)c1ccccn1", "note": "(stereo not drawn)", "Potency": "inconclusive: 39.8 µM [activator, partial curve, poor fit]"}, {"smiles": "O=C(N/N=C/c1ccc(-c2cccc(C(F)(F)F)c2)o1)c1cccc(F)c1", "Potency": "active: 2 µM"}, {"smiles": "O=C(NNC(=O)c1ccccn1)c1cccc([N+](=O)[O-])c1", "Potency": "active: 10 µM"}, {"smiles": "COc1ccc(C(=O)NC(=S)Nc2cccc(Cl)c2N2CCOCC2)cc1[N+](=O)[O-]", "Potency": "active: 1.78 µM"}, {"smiles": "O=C(NCCc1c[nH]c2ccccc12)C(=O)NCC(c1ccco1)N1CCN(c2ccccc2F)CC1", "note": "(stereo not drawn)", "Potency": "inconclusive: 12.6 µM [activator, single point]"}, {"smiles": "COc1ccc(CNC(=O)CCS(=O)(=O)Cc2ccc(C)cc2)c(OC)c1", "activity change, negative = inhibition": "inactive: 13.9%"}, {"smiles": "O=C(c1c[nH]c(C(=O)C(Cl)(Cl)Cl)c1)c1ccc(F)cc1Cl", "Potency": "inconclusive: 35.5 µM [inhibitor, single point]"}, {"smiles": "O=C(Cn1c(=O)c2sccc2n(Cc2cccc([N+](=O)[O-])c2)c1=O)NCCc1ccccc1", "Potency": "inconclusive: 7.08 µM [activator, partial curve]"}, {"smiles": "O=C(CN1CCCC1)Nc1c(C(=O)C2CC2)oc2ccccc12", "Potency": "inconclusive: 11.2 µM [inhibitor, single point]"}, {"smiles": "Cc1cc(S(=O)(=O)Nc2cc(C)c(O)c(C)c2)c(C)s1", "Potency": "inconclusive: 20 µM [inhibitor, partial curve, poor fit]"}, {"smiles": "CC1Sc2ccc(S(=O)(=O)CCC(=O)NCc3ccccc3Cl)cc2NC1=O", "note": "(stereo not drawn)", "activity change, negative = inhibition": "inactive: 10.1%"}, {"smiles": "CCN(CC)C(=O)c1sc(N)c(C#N)c1C", "Potency": "inconclusive: 0.126 µM [inhibitor, full curve]"}, {"smiles": "CCCN(CCC)CCCNC(=O)CC(C(=O)N1CCc2ccccc21)n1ccnc1", "note": "(stereo not drawn)", "activity change, negative = inhibition": "inactive: -12.6%"}, {"smiles": "O=C(O)CCSCC(=O)c1ccc2c(c1)OCCO2", "Potency": "active: 2 µM"}, {"smiles": "COc1cccc(C(=O)Nc2ccc3c(c2)OCO3)c1OC", "Potency": "inconclusive: 14.1 µM [inhibitor, single point]"}, {"smiles": "Cc1nc2n(COCCO)cnn2c(=O)c1Br", "activity change, negative = inhibition": "inactive: -3.84%"}, {"smiles": "N#CC(=C=[N-])C1=C(C#N)C(c2ccccc2F)C([n+]2ccccc2)C(O)(C2CC2)N1", "note": "(stereo not drawn)", "activity change, negative = inhibition": "inactive: 5.82%"}, {"smiles": "COc1ccc(-c2noc(CSc3nc(-c4ccccc4)cc(=O)[nH]3)n2)cc1OC", "Potency": "inconclusive: 35.5 µM [inhibitor, single point]"}, {"smiles": "CCc1nnc(N/N=C/c2ccc(-c3ccc([N+](=O)[O-])cc3)o2)n1N", "Potency": "active: 3.55 µM"}, {"smiles": "CCc1c(C)nc2c(-c3ccccc3)c(C)nn2c1Nc1ccc(NC(C)=O)cc1", "Potency": "inconclusive: 35.5 µM [inhibitor, single point]"}, {"smiles": "O=C(O)c1cccc(NC(=S)N/N=C/c2ccccc2OCc2ccc(Br)cc2)c1", "Potency": "active: 12.6 µM"}, {"smiles": "O=C(Nc1ccc(C(=O)N2CCCC2)cc1)c1ccccc1F", "Potency": "inconclusive: 3.98 µM [activator, single point]"}, {"smiles": "Cc1nc(NC(=O)CSc2cc(C)c3ccccc3n2)c(Cl)cc1Cl", "Potency": "active: 2.51 µM"}, {"smiles": "CN(C)C1(CNC(=O)C2CCN(S(=O)(=O)c3cccc(C(F)(F)F)c3)CC2)CCCCC1", "activity change, negative = inhibition": "inactive: -18.9%"}, {"smiles": "CC(=O)N1c2ccc(S(=O)(=O)N3CCCC(C(=O)NCc4ccc(Cl)cc4)C3)cc2CC1C", "note": "(stereo not drawn)", "Potency": "inconclusive: 17.8 µM [activator, single point]"}, {"smiles": "COCC(=O)N1CCC2(CCCN(C(=O)Nc3ccc(OC)cc3)C2)CC1", "activity change, negative = inhibition": "inactive: 33.1%"}, {"smiles": "Cc1ccc(C(=O)CCC(=O)N(C)CC(=O)Nc2c(Cl)cccc2Cl)cc1", "activity change, negative = inhibition": "inactive: 9.26%"}, {"smiles": "CC(C)c1ccc(N2C=Nc3ccc(C(C)C)cc3C2)cc1", "Potency": "active: 7.94 µM"}, {"smiles": "Cc1ccccc1NS(=O)(=O)c1cccc2nonc12", "activity change, negative = inhibition": "inactive: 12.8%"}, {"smiles": "CC12COC3(C(=O)Nc4ccc5ccccc5c4)CC1CCC32C", "note": "(stereo not drawn)", "Potency": "inconclusive: 6.31 µM [activator, partial curve, poor fit]"}, {"smiles": "COc1ccc(C(=O)N(Cc2ccccc2)c2cccc(C)c2)c(OC)c1OC", "activity change, negative = inhibition": "inactive: 0.567%"}, {"smiles": "NNC(=O)CCN(Cc1ccco1)S(=O)(=O)c1ccc(Cl)cc1", "Potency": "inconclusive: 22.4 µM [inhibitor, single point]"}, {"smiles": "COc1cccc(NC(=O)Nc2cccn(Cc3ccccc3)c2=O)c1", "Potency": "inconclusive: 11.2 µM [activator, partial curve]"}, {"smiles": "Cc1nn(-c2ccccn2)c2nc(-c3cccs3)cc(C(=O)NCc3ccco3)c12", "Potency": "active: 14.1 µM"}, {"smiles": "Cc1ccc(NC(=O)C2CCCN2S(=O)(=O)c2cccc3cccnc23)c(C)c1", "note": "(stereo not drawn)", "Potency": "inconclusive: 8.91 µM [inhibitor, partial curve]"}, {"smiles": "CC1=NN(c2nc3ccccc3s2)C(O)(C(F)(F)F)C1", "note": "(stereo not drawn)", "Potency": "inconclusive: 11.2 µM [inhibitor, single point]"}, {"smiles": "Cn1c2ccccc2c(=O)c2cc(C#CC3(O)CCCCC3)ccc21", "Potency": "active: 11.2 µM"}, {"smiles": "CCCn1c(=O)c(C(=O)NNC(=O)c2ccccc2[N+](=O)[O-])c(O)c2ccccc21", "Potency": "inconclusive: 15.8 µM [inhibitor, single point]"}, {"smiles": "COc1ccc2c(c1)c(=O)oc1cc(OCC(=O)N3CCc4ccccc4C3)ccc12", "Potency": "inconclusive: 0.794 µM [inhibitor, single point]"}, {"smiles": "Cc1cc(OCc2cc(C(=O)N(C)C3CCOCC3)no2)cc(C)c1Cl", "Potency": "inconclusive: 7.08 µM [activator, partial curve]"}, {"smiles": "CCOC(=O)c1ccc(NC(=O)c2ccc(NS(C)(=O)=O)cc2)cc1", "activity change, negative = inhibition": "inactive: -3.5%"}, {"smiles": "O=C(CCC(=O)Nc1ccc(Br)cc1)N/N=C/c1cc([N+](=O)[O-])ccc1O", "activity change, negative = inhibition": "inactive: -33.7%"}, {"smiles": "CCNCC(=O)N1c2ccccc2CCc2ccc(NC(=O)OC(C)C)cc21", "activity change, negative = inhibition": "inactive: -7.21% [at 1.91 µM]"}, {"smiles": "O=C(NCc1ccco1)c1cnn2c1NC(c1ccc(Br)cc1)CC2C(F)(F)F", "note": "(stereo not drawn)", "Potency": "inconclusive: 17.8 µM [activator, single point]"}, {"smiles": "O=P(O)(O)OC[C@H]1O[C@](O)(COP(=O)(O)O)[C@@H](O)[C@@H]1O", "activity change, negative = inhibition": "inactive: 17%"}, {"smiles": "CC(C)CCN=Cc1c(O)n(-c2ccccc2)c(=O)c2ccccc12", "activity change, negative = inhibition": "inactive: 5.82%"}, {"smiles": "CNc1ccccc(C(=O)/C=C/c2ccccc2OC)c1=O", "Potency": "inconclusive: 25.1 µM [inhibitor, single point]"}, {"smiles": "CCOC(=O)C1CCCN(C(=O)c2cc(Nc3ccc(OC)cc3OC)nc3ccccc23)C1", "note": "(stereo not drawn)", "Potency": "inconclusive: 11.2 µM [activator, partial curve]"}, {"smiles": "CCN(CC)CCN1C(=O)C2C(C(=O)Nc3cccc(C)c3)C3C=CC2(O3)C1C(=O)NC1CCCC(C)C1C", "note": "(stereo not drawn)", "activity change, negative = inhibition": "inactive: -7.84%"}, {"smiles": "Cc1nc2cc(NC(=O)Nc3ccccc3Cl)ccc2n1C", "Potency": "active: 5.01 µM"}, {"smiles": "O=C(Nc1nccs1)c1ccc(S(=O)(=O)N2CCOCC2)cc1", "Potency": "inconclusive: 22.4 µM [inhibitor, single point]"}]}]}
